Assay [1] deals with T1, caspase-3 (human (endogenous in HCT116)) (UniProt P42574).
T1 sequence: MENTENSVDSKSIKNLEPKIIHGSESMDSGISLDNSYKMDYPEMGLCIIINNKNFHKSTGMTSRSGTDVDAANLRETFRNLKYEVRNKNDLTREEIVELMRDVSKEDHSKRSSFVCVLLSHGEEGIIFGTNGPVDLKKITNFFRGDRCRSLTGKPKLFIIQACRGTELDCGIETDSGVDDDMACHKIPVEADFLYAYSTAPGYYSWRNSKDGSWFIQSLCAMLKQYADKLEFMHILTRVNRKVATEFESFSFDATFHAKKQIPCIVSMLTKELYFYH
As to the kind of experiment: co-IP; IP with caspase-3 antibody (IP-Cas-3), cells treated with DMSO or 5-FU (50 μg/ml) in the presence of z-VAD (20 μM).

The chains behind the UniProt entries cited, without tags or fusion partners.
UniProt Q13158: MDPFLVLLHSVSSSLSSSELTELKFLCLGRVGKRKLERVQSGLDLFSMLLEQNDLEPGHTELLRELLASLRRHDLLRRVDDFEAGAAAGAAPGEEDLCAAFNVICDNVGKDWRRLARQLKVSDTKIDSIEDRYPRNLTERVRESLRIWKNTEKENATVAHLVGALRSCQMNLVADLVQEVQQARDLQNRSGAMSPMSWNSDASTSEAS
UniProt Q14790: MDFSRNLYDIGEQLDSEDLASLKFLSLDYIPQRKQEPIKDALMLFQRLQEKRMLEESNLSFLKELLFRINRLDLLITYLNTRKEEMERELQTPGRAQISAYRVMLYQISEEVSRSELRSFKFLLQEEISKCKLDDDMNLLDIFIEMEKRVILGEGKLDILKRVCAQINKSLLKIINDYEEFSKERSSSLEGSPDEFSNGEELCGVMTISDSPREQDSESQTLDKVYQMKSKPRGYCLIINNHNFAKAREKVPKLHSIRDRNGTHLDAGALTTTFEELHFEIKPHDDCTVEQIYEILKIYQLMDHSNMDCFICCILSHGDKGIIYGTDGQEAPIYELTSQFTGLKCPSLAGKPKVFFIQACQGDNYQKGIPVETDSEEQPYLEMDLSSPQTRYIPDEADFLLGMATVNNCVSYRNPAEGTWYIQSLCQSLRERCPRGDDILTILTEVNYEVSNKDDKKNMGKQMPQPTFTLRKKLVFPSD
UniProt Q13546: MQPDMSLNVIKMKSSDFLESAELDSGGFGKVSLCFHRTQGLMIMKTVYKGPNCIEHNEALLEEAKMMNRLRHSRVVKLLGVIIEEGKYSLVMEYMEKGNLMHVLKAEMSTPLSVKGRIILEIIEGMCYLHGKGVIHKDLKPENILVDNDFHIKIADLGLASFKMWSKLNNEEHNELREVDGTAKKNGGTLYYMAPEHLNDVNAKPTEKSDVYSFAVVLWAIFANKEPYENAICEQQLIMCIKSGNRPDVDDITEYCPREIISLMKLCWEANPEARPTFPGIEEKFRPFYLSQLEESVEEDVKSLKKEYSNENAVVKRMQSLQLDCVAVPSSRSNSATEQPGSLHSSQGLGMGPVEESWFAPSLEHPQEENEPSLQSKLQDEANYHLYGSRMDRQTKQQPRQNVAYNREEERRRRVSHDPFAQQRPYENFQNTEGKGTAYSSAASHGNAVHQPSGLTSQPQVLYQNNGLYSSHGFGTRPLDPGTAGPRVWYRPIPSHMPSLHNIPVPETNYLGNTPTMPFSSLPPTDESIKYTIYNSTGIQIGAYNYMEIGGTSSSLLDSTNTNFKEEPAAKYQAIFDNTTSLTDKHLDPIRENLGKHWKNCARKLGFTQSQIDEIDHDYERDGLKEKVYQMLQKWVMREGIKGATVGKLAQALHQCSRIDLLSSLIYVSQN

For assay [2], the target named is T1, caspase-3 (human (endogenous in HCT116)). Kind of assay: co-IP; IP with caspase-3 antibody (IP-Cas-3) from lysates of HCT116 WT or C3KO cells treated with DMSO or 5-FU (50 μg/ml) for 24 h, without z-VAD.

Results are given in words; binding and its absence hold for the method and conditions named. In cells and extracts the contact can be indirect. Some entries that bind do so weakly or less than the wild type.

Consider “Fas (TNFRSF6)-associated via death domain (from UniProt Q13158 1-208)”, for which the results for the binding result in assay [1] and in assay [2] were “no binding (condition: with z-VAD (20 μM))” and “binds”, respectively.
As to “pro-caspase-8 (from UniProt Q14790 1-479)”, in assay [1], the binding result was “no binding (condition: with z-VAD (20 μM))”.
Consider “receptor (TNFRSF)-interacting serine-threonine kinase 1 (from UniProt Q13546 1-671)”, for which the binding result was “no binding (condition: with z-VAD (20 μM))” in assay [1] and “binds” in assay [2].
